Test [1] addresses HA-CBP (UniProt Q92793). The experiment in a line: co-IP; tagged proteins coexpressed in HEK293T; IP with HA or Flag antibody and protein G agarose overnight at 4 °C in IP buffer (20 mM HEPES pH 7.0, 180 mM KCl, 0.2 mM EGTA, 1.5 mM MgCl2, 20% glycerol, 1% NP-40), western blot; for HINT1 with β-catenin also with coexpressed HA-SIRT1 WT or HY and/or CBP. (Immunoblotting shows a protein as a band on a membrane.)

Protein sequences, listed by entry. Tags and fused reporters are not part of them.
UniProt Q92793: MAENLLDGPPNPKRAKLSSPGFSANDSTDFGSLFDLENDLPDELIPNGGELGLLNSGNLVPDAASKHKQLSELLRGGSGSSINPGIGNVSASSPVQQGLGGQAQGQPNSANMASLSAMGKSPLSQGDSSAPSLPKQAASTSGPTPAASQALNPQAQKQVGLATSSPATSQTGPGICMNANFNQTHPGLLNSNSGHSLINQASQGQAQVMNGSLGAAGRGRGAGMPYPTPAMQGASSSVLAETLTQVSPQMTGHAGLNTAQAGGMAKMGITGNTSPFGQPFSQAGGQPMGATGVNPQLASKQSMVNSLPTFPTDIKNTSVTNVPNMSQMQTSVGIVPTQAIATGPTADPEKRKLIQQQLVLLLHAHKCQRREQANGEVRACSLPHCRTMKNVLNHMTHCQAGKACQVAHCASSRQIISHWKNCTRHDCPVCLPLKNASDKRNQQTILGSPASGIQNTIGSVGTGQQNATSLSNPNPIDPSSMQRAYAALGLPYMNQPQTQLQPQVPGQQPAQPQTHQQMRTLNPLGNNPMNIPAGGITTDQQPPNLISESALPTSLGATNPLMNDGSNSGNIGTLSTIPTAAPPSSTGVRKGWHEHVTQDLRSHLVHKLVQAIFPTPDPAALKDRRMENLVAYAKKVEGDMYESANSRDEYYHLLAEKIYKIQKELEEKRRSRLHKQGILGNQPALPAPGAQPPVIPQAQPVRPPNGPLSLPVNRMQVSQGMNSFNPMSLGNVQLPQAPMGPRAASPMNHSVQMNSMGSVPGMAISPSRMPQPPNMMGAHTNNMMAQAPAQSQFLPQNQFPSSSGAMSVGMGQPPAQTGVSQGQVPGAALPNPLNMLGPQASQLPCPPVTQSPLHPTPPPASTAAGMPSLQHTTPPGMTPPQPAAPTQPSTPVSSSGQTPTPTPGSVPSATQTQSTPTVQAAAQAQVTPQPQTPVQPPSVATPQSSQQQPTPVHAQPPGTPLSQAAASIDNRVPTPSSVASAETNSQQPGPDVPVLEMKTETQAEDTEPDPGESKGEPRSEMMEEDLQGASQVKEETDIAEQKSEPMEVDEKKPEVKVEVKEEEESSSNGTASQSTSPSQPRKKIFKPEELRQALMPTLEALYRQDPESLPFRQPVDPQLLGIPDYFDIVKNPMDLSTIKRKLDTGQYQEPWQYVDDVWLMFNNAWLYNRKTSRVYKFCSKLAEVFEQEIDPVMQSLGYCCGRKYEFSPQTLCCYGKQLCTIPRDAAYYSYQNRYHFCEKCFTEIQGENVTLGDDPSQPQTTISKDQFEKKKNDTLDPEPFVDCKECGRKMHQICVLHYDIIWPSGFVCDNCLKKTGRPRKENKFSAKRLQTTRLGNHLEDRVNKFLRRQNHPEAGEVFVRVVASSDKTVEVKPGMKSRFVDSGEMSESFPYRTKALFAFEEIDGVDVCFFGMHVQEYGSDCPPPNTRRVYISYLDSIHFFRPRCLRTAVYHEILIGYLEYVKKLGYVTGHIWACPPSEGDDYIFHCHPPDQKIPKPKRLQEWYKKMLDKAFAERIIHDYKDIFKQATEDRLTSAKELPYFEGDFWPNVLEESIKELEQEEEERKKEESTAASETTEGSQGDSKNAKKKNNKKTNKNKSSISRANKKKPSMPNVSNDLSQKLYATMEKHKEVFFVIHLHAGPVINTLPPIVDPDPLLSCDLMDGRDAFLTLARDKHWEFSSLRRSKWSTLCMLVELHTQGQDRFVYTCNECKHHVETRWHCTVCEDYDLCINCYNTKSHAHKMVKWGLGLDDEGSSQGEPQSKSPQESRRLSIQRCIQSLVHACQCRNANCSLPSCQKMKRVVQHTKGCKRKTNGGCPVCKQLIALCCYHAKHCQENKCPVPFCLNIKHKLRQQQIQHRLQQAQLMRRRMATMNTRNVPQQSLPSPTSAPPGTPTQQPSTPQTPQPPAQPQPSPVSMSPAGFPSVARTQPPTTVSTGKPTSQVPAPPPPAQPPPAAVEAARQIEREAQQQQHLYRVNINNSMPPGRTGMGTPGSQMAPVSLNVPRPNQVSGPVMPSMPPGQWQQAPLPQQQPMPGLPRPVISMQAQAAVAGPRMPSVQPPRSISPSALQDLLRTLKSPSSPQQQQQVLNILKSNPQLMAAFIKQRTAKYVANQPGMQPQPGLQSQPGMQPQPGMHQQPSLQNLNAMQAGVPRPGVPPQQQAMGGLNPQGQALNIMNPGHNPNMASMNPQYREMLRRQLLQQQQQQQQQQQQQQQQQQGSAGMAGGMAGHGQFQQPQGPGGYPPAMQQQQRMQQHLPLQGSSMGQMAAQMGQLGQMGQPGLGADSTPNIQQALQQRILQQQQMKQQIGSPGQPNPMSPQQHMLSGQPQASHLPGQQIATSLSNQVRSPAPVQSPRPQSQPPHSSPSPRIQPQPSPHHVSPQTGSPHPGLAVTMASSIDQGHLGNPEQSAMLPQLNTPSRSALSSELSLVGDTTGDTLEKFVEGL
UniProt Q96EB6: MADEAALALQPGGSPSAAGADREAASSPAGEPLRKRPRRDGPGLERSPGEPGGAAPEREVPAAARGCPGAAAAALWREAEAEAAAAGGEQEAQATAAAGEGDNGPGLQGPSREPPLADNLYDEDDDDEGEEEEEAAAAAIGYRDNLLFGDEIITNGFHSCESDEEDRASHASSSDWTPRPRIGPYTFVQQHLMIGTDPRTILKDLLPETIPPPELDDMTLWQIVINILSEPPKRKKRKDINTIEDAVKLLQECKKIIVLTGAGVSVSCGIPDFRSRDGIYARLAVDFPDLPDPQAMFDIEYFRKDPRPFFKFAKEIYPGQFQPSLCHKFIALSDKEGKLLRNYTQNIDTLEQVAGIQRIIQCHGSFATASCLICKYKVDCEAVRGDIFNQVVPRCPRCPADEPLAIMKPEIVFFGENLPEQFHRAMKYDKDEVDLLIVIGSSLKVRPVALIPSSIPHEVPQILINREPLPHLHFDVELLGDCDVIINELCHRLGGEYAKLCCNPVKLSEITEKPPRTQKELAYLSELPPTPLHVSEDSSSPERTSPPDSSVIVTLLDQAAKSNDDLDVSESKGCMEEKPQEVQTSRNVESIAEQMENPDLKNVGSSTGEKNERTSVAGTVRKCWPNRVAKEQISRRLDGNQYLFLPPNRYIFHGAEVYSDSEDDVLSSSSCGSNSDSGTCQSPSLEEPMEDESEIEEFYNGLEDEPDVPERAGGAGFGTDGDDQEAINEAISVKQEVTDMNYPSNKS
UniProt P35222: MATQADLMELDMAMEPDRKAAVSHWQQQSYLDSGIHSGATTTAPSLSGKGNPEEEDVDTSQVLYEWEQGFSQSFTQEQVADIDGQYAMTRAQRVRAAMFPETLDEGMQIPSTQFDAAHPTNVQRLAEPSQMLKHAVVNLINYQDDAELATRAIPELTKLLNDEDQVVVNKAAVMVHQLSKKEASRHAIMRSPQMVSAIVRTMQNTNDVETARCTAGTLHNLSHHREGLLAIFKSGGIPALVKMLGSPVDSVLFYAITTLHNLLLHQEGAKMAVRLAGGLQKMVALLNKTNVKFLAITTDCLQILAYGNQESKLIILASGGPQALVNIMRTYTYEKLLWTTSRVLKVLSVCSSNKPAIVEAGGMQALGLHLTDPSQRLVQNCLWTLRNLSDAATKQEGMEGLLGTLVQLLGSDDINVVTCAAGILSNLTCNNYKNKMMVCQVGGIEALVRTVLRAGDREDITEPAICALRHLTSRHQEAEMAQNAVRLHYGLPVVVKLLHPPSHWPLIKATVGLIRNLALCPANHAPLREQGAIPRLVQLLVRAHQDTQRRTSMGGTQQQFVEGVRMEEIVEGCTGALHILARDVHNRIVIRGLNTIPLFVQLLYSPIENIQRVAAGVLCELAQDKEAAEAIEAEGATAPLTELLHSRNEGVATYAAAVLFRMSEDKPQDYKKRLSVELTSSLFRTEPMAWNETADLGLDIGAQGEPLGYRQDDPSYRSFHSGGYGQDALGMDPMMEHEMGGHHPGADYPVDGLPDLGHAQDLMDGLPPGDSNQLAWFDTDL
UniProt O75030: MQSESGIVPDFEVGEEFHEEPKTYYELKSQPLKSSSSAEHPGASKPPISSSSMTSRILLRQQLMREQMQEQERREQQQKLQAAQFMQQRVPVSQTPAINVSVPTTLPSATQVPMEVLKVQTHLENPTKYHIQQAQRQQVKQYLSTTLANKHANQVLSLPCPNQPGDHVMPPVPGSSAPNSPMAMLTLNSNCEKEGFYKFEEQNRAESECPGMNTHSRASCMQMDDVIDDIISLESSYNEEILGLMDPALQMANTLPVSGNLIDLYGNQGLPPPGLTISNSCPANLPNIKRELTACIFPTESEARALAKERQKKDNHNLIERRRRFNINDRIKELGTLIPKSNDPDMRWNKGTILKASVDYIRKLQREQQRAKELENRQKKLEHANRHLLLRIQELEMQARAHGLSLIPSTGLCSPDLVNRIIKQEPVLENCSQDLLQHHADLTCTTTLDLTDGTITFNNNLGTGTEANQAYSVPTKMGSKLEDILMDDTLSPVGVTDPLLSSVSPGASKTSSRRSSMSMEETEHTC

Test [2] concerns the target HA-SIRT1 wild type (UniProt Q96EB6). Described as above.
The target of test [3] is Flag-HINT1 wild type (histidine triad nucleotide-binding protein 1) (human) (UniProt P49773). Described as above.
The target in test [4] is T1, Flag-HINT1 2KR (K21/30R), deacetylation mimetic mutant (human) (UniProt P49773).
T1 sequence: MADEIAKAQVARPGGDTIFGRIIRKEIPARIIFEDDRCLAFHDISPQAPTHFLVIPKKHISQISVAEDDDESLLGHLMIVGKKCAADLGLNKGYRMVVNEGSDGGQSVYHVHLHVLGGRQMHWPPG
The test is described as above.

In test [5] the target is endogenous HINT1 (human (endogenous in DLD1, SW480, A375)) (UniProt P49773). The experiment in a line: co-IP; endogenous proteins of DLD1 or SW480 cells immunoprecipitated and immunoblotted; IP buffer 20 mM HEPES pH 7.0, 180 mM KCl, 1% NP-40, overnight at 4 °C.
The target in test [6] is endogenous CBP (human (endogenous in DLD1, SW480)) (UniProt Q92793). The test is described as above.
In test [7] the target is endogenous SIRT1 (human (endogenous in SW480, DLD1)) (UniProt Q96EB6). The test is described as above.
The target of test [8] is T1, Flag-HINT1 2KR (K21/30R), deacetylation mimetic mutant (human). The experiment in a line: co-IP; A375 cells transfected with Flag-HINT1 WT or 2KR; IP and western blot.
For test [9], the target named is Flag-HINT1 wild type (histidine triad nucleotide-binding protein 1) (human) (UniProt P49773). The description is as above.
Test [10] concerns the target endogenous HINT1 (human (endogenous in DLD1, SW480, A375)) (UniProt P49773). The experiment in a line: co-IP; endogenous HINT1 and MITF in A375 cells transfected with Flag-SIRT1 WT or HY; IP and western blot.
Test [11] shares this target. The experiment in a line: co-IP; endogenous HINT1 and β-catenin in DLD1 cells expressing Flag-SIRT1 WT or HY; IP and western blot.
Test [12] addresses Flag-HINT1 wild type (histidine triad nucleotide-binding protein 1) (human) (UniProt P49773). The experiment in a line: co-IP; DLD1 cells transfected with Flag-HINT1; shCON or shSIRT1 knock-down, or EX527 (10 µM) and sirtinol (10 µM) for 12 h; IP and western blot.

Here are results for 7 substances from article PMC8080686.

No constants are given. Whether binding was seen depends on the method and setting. In cells and extracts the contact can be indirect. Some results given as binding are weak or reduced against the parent protein; the word gives no strength. For some of these results: Sequences can lack the tags named with a protein.

With “Flag-HINT1 wild type (histidine triad nucleotide-binding protein 1) (from UniProt P49773 1-126)”, the binding result in test [1] and in test [2] was “binds” each time.
On to “HA-CBP (from UniProt Q92793 1-2442) (enzyme)”, for which the binding result in test [3] is listed as “binds”.
As for “HA-β-catenin (from UniProt P35222 1-781)”, the binding entry in [4] and in test [3] was “binds” in each case.
With “endogenous CBP (from UniProt Q92793 1-2442) (enzyme)”, the binding result in [5] is listed as “binds”.
For “endogenous HINT1 (from UniProt P49773 1-126)”, the binding result in test [6] and in [7] was “binds” each time.
For the substance “endogenous microphthalmia transcription factor (MITF) (from UniProt O75030 1-526)”, the binding entry in [8], in [9] and in test [10] was “binds” in each case.
For “endogenous β-catenin (from UniProt P35222 1-781)”, the binding entry in test [11] and in test [12] was “binds” each time.
